2 substances from patent US8815811B2 (Eli Lilly and Company, priority 2010, dated 2014) can be followed below.

Where no end group is shown, it is not given here. [ ]: non-standard residue; d: D form. Aib = CC(C)(N)C(=O)O

A short description of series [1]: general procedure: Fmoc solid-phase peptide synthesis; Fmoc-Rink amide polystyrene resin (Rapp Polymere), approximately 0.7 mmol/g; DIC/HOBt; PyBOP/DIEA for 1-Nal at position 22 and Ile at position 12. The conditions noted are these: conjugation step, based on the amount of starting peptide.
A short description of another series: peptide synthesis. The following applies: conjugation step.

For “Y[Aib]EGTFTSDYSI[Aib]LDKIAQRAFVQWLIA[Aib]KGKKQEWKHQITQ”, in series [1], the conjugation yield result is given as “typically in the range of 70%”.
For “Tyr-Aib-Glu-Gly-Thr-Phe-Thr-Ser-Asp-Tyr-Ser-Ile-Aib-Leu-Asp-Lys-Ile-Ala-Gln-Arg-Ala-Nal-Val-Gln-Trp-Leu-Ile-Ala-Aib-Lys-Gly-Lys-Lys-Gln-Glu-Trp-Lys-His-Gln-Ile-Thr-Gln-Cys(PEG20K)-Cys(PEG20K)”, the conjugation yield result in “peptide synthesis” was “typically in the range of 70%”.
